Record: PubChem BioAssay AID1224828 (NIAID, 2016)

Assay: 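Regulators linking TLR4 signalling to p65 nuclear translocation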 (primary screen)
Cells: mouse RAW264.7 G9 macrophage reporter cells (GFP-p65, Tnf promoter-mCherry)
Reagent: siRNA pool against mouse genes, 100 nM
Timing: 2 days siRNA transfection, then 40 min LPS before fixation
Conditions: LPS (Salmonella minnesota R595) at 10 ng/ml
Read-out: 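Microscopy ratio of nuclear to perinuclear-ring GFP-p65 signal, scaled to the plate median; gene score is the average of two replicate robust z-scores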
Reading the numbers: p65 translocation robust z-score: higher = more nuclear NF-kappaB p65 after LPS than the plate median; nuclear/cytoplasmic p65 ratio: higher = more nuclear NF-kappaB p65
Call rule: 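Active if robust z is above 3.3 (negative regulators) or below -1.56, the Tlr4 control median (positive regulators); activity score 50 or more; control wells not called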
Meaning of the calls: active = hit (p65 shift raised or lowered); inactive = no clear change
Here is a random part of about 17,000 deposited reagents. In the full data, 762 (4.5%) got an active call. 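Active calls include both raised and lowered p65 entry, mostly lowered; wells with fewer than 50 cells lack a z-score.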 Raw values vary from plate to plate and are shown uncorrected. Unmarked entries are inactive.

gene | p65 translocation robust z-score | nuclear/cytoplasmic p65 ratio, rep 1 | nuclear/cytoplasmic p65 ratio, rep 2 | low cell count flag
Hpca | -0.6 | 1.67 | 1.47 | enough cells to score
Fxyd2 | -0.68 | 1.31 | 1.31 | enough cells to score
Rpl36al | – | 1.32 | 1.33 | fewer than 50 cells per well; well left out of scoring
Usp38 | -0.16 | 1.63 | 1.35 | enough cells to score
Tacr1 | -1.25 | 1.38 | 1.35 | enough cells to score
Gm6740 | -0.78 | 1.59 | 1.42 | enough cells to score
Or10ag60 | -0.76 | 1.5 | 1.5 | enough cells to score
Hoxd4 | 0.37 | 1.46 | 1.45 | enough cells to score
Hsfy2 | 0.07 | 1.63 | 1.62 | enough cells to score
Galnt7 | 2.16 | 1.89 | 1.78 | enough cells to score
Sval1 | 0.85 | 1.58 | 1.29 | enough cells to score
Adcy2 | 0.06 | 1.63 | 1.67 | enough cells to score
Hnf4g | -0.38 | 1.43 | 1.28 | enough cells to score
Rspry1 | 0.57 | 1.69 | 1.71 | enough cells to score
Plagl1 | 1.45 | 1.61 | 1.34 | enough cells to score
Eif2b2 | 0.35 | 1.55 | 1.38 | enough cells to score
Dusp28 | – | 1.37 | 1.38 | fewer than 50 cells per well; well left out of scoring
Nog | 0.31 | 1.58 | 1.37 | enough cells to score
Derl3 | – | 1.32 | 1.15 | fewer than 50 cells per well; well left out of scoring
Krt34 | -0.46 | 1.47 | 1.39 | enough cells to score
Atp8b3 | -0.71 | 1.43 | 1.48 | enough cells to score
Eif5a | -0.94 | 1.33 | 1.13 | enough cells to score
Crybb1 | -0.42 | 1.51 | 1.31 | enough cells to score
Vps29 | 1.66 | 1.65 | 1.38 | enough cells to score
Mprip | 0.56 | 1.55 | 1.5 | enough cells to score
Nap1l3 | 1.63 | 1.79 | 2.05 | enough cells to score
Cyb5r4 | 1.27 | 1.62 | 1.49 | enough cells to score
Chst4 | 0.24 | 1.63 | 1.82 | enough cells to score
Metap2 | -0.9 | 1.57 | 1.42 | enough cells to score
Socs3 | 0.15 | 1.39 | 1.76 | enough cells to score
P2rx7 | 0.89 | 1.5 | 1.59 | enough cells to score
Bdp1 | -0.9 | 1.29 | 1.28 | enough cells to score
Odr4 | -1.94 (active) | 1.39 | 1.52 | enough cells to score
Stx5a | – | 1.52 | 1.31 | fewer than 50 cells per well; well left out of scoring
Capns1 | -1.4 | 1.41 | 1.4 | enough cells to score
Ube2g1 | 0.66 | 1.64 | 1.56 | enough cells to score
Siah2 | -0.62 | 1.47 | 1.46 | enough cells to score
Nedd4l | 1.39 | 1.63 | 1.51 | enough cells to score
Psmc3ip | – | 0.938 | 1.02 | fewer than 50 cells per well; well left out of scoring
Otx1 | -1.07 | 1.25 | 1.33 | enough cells to score
Cdipt | -0.89 | 1.4 | 1.71 | enough cells to score
Ap1s1 | 0.15 | 1.56 | 1.78 | enough cells to score
Dnajb9 | 3.47 (active) | 1.97 | 1.77 | enough cells to score
Or8g35 | 2.28 | 1.7 | 1.5 | enough cells to score
Or8g51 | -1.17 | 1.28 | 1.11 | enough cells to score
Lrrn4 | -1.13 | 1.3 | 1.49 | enough cells to score
Plec | -0.05 | 1.5 | 1.39 | enough cells to score
Or11g26 | -0.17 | 1.42 | 1.18 | enough cells to score
Ocstamp | -0.78 | 1.11 | 1.17 | enough cells to score
Arhgdib | -0.36 | 1.54 | 1.59 | enough cells to score
Ncs1 | 0.23 | 1.61 | 1.51 | enough cells to score
Gja5 | -0.76 | 1.38 | 1.23 | enough cells to score
Spdef | -0.75 | 1.4 | 1.49 | enough cells to score
Psmd3 | – | 1.41 | 1.21 | fewer than 50 cells per well; well left out of scoring
Hdac8 | -0.78 | 1.28 | 1.33 | enough cells to score
Myh3 | -1.2 | 1.18 | 1.2 | enough cells to score
Cops3 | -0.04 | 1.46 | 1.38 | enough cells to score
Vmn1r233 | 1.42 | 1.69 | 1.82 | enough cells to score
4932414J04Rik | – | 1.27 | 1.6 | fewer than 50 cells per well; well left out of scoring
